Results are given in words; binding and its absence hold for the method and conditions named. In cells and extracts the contact can be indirect. Some entries that bind do so weakly or less than the wild type.
Target: T1, ETS2 (UniProt P15036)
T1 sequence: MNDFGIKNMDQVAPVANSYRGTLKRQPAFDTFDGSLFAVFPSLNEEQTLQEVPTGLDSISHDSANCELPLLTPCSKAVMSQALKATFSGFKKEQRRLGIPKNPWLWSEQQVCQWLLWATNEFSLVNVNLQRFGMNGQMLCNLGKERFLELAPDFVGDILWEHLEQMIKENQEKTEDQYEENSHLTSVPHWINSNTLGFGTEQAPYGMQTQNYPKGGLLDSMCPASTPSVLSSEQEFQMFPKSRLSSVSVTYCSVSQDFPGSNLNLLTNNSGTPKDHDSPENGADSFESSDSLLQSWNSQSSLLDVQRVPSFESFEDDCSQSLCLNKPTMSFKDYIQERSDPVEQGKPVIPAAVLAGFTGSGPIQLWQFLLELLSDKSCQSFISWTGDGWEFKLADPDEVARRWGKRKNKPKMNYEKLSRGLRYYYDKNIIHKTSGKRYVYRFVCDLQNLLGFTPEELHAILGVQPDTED
Assay: co-IP; Cal-62 and TPC-1 cells transfected with ETS2 overexpression plasmid or empty vector; lysed 48 h later in IP lysis solution with protease inhibitor; lysate incubated with anti-ETS2 antibody overnight at 4°C; Protein A/G agarose beads; washed three times with cold lysis buffer

B1: ZMYND11 (protein, UniProt Q15326 1-602)
chain: MARLTKRRQADTKAIQHLWAAIEIIRNQKQIANIDRITKYMSRVHGMHPKETTRQLSLAVKDGLIVETLTVGCKGSKAGIEQEGYWLPGDEIDWETENHDWYCFECHLPGEVLICDLCFRVYHSKCLSDEFRLRDSSSPWQCPVCRSIKKKNTNKQEMGTYLRFIVSRMKERAIDLNKKGKDNKHPMYRRLVHSAVDVPTIQEKVNEGKYRSYEEFKADAQLLLHNTVIFYGADSEQADIARMLYKDTCHELDELQLCKNCFYLSNARPDNWFCYPCIPNHELVWAKMKGFGFWPAKVMQKEDNQVDVRFFGHHHQRAWIPSENIQDITVNIHRLHVKRSMGWKKACDELELHQRFLREGRFWKSKNEDRGEEEAESSISSTSNEQLKVTQEPRAKKGRRNQSVEPKKEEPEPETEAVSSSQEIPTMPQPIEKVSVSTQTKKLSASSPRMLHRSTQTTNDGVCQSMCHDKYTKIFNDFKDRMKSDHKRETERVVREALEKLRSEMEEEKRQAVNKAVANMQGEMDRKCKQVKEKCKEEFVEEIKKLATQHKQLISQTKKKQWCYNCEEEAMYHCCWNTSYCSIKCQQEHWHAEHKRTCRRKR
B1 was tested. Which binding did it give?
The binding was “binds”.
